Reference: patent US20050221429A1
No constants are given. Whether binding was seen depends on the method and setting. Some entries that bind do so weakly or less than the wild type.

Chains of the proteins cited; added tags and fusions are not shown. Residues count along the entry.
UniProt P06731, residues 35-685: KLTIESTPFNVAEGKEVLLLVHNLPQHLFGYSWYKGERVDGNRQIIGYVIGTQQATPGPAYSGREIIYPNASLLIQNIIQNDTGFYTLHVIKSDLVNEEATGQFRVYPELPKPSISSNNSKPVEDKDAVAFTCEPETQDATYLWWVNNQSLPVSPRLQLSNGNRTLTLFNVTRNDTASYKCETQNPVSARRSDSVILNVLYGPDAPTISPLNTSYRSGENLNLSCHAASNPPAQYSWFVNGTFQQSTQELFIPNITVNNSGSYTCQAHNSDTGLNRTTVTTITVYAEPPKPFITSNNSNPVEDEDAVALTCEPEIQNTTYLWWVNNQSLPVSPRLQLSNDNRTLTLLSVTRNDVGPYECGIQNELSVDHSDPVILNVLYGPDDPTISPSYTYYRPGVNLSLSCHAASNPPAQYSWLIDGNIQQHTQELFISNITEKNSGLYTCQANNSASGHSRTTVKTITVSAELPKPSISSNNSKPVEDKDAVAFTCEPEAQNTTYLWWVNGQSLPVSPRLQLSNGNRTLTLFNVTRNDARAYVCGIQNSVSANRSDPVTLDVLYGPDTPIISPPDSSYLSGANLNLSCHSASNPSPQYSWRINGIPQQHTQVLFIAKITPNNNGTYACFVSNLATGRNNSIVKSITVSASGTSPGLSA

Biological target: CEA (UniProt P06731)
Assay: CEA binding ELISA of culture media from transduced cells, compared with a human IgG ELISA

B1: MN14 antibody (antibody, V domains shown)
VH: EVQLVESGGGVVQPGRSLRLSCSASGFDFTTYWMSWVRQAPGKGLEWIGEIHPDSSTINYAPSLKDRFTISRDNAKNTLFLQMDSLRPEDTGVYFCASLYFGFPWFAYWGQGTPVTVSS
VL: DIQLTQSPSSLSASVGDRVTITCKASQDVGTSVAWYQQKPGKAPKLLIYWTSTRHTGVPSRFSGSGSGTDFTFTISSLQPEDIATYYCQQYSLYRSFGQGTKVEIKR
B1 was tested, and the binding was “binds”.
